The other results are listed elsewhere or left out.
Compound: CC1Cc2ccccc2N1C(=O)C1CCCN(C1)C(=O)CCl (mixture of isomers) [TRIM25 ligand 11 (diastereomer mixture)]
Assay: probe-labelled cysteine peptide fold change vs DMSO (competition) (log2 fold change); higher = less target engagement (more negative = stronger competition)
Details: THP-1, incubation time: 4 h
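Also: competitive chemoproteomic profiling in live THP-1 cells with an iodoacetamide desthiobiotin (IA-DTB) probe, comparing probe-labelled peptide intensities in compound-treated cells against DMSO-treated controls.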

The chains behind the UniProt entries cited, without tags or fusion partners. Where a name states a change or a piece, a line headed by the entry shows the natural chain unless it says otherwise.
UniProt Q96D70: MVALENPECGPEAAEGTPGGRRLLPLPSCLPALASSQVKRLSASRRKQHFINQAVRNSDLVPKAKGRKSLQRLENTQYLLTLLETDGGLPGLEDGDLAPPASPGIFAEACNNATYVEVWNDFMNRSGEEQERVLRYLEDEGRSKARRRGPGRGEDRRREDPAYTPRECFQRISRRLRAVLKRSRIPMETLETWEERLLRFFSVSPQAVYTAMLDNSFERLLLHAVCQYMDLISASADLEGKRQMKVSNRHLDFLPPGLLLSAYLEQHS
UniProt Q15269: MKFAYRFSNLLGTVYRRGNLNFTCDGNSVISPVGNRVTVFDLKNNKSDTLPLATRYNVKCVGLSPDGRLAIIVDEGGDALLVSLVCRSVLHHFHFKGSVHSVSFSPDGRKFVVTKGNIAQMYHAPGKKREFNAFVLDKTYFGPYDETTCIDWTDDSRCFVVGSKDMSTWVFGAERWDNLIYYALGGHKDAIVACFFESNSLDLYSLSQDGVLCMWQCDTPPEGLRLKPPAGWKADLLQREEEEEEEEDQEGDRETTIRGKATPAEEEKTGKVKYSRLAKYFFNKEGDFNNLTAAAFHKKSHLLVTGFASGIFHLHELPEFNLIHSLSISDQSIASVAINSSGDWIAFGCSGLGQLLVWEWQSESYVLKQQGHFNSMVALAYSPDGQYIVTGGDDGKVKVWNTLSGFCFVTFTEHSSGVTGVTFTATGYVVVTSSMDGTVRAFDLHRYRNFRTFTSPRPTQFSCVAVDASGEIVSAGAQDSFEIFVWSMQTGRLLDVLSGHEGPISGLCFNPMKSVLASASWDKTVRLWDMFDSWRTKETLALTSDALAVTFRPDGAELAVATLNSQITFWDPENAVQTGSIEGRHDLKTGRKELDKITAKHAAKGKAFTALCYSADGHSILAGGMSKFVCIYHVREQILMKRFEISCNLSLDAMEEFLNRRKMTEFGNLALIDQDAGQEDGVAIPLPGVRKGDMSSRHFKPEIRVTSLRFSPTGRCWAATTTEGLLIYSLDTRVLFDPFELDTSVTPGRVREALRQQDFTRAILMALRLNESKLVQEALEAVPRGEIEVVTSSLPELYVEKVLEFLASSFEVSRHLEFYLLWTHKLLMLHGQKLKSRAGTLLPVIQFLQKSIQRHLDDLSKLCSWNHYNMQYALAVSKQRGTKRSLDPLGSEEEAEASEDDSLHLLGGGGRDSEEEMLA
UniProt Q92878: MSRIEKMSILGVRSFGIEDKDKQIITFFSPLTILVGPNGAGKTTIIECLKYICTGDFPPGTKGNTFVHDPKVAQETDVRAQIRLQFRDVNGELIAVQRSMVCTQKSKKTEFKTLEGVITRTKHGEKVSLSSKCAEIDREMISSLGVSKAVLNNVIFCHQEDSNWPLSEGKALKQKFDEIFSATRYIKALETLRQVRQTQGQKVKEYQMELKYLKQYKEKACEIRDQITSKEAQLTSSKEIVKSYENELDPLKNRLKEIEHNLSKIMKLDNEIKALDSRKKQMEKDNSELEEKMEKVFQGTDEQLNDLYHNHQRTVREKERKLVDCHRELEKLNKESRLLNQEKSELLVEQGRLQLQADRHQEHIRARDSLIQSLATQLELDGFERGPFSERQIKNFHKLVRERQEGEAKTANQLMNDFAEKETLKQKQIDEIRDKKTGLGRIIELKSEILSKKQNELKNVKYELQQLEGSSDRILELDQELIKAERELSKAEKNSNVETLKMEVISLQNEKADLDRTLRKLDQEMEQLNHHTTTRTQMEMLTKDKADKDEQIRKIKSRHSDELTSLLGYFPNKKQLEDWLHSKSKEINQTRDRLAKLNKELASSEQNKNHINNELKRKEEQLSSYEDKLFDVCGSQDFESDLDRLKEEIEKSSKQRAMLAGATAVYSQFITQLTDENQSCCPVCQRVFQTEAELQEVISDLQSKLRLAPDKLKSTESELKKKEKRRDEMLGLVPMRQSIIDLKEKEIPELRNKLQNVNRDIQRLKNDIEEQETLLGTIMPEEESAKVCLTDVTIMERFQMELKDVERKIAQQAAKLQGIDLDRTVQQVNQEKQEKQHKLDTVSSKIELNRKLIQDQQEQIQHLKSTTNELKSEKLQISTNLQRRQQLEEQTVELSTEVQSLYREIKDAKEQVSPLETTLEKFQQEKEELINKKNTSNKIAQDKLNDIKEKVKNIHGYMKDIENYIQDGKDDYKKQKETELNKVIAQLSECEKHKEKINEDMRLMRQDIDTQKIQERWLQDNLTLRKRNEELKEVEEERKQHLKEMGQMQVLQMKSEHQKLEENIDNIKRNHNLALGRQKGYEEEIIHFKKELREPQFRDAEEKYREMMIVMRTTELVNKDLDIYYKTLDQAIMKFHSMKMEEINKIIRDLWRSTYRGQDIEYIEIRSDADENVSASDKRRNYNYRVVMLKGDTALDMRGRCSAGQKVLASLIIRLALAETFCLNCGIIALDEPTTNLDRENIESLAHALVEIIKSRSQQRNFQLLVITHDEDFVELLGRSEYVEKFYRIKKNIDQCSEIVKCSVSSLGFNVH
UniProt Q9H0R6: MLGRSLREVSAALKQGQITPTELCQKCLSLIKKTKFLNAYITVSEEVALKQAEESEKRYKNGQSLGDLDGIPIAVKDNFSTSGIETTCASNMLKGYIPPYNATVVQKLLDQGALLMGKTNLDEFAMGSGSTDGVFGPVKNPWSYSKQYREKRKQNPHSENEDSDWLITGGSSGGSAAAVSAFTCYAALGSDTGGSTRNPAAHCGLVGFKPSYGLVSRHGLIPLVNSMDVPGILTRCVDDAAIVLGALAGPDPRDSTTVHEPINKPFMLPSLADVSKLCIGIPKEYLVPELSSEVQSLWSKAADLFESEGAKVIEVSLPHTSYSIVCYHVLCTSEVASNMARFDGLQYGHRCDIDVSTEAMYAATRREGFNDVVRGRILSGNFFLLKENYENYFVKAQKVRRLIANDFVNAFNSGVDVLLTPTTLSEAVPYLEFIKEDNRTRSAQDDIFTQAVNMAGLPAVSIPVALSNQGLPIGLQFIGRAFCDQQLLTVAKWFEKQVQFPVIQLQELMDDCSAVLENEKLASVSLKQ
UniProt P49023, whole entry, looked up: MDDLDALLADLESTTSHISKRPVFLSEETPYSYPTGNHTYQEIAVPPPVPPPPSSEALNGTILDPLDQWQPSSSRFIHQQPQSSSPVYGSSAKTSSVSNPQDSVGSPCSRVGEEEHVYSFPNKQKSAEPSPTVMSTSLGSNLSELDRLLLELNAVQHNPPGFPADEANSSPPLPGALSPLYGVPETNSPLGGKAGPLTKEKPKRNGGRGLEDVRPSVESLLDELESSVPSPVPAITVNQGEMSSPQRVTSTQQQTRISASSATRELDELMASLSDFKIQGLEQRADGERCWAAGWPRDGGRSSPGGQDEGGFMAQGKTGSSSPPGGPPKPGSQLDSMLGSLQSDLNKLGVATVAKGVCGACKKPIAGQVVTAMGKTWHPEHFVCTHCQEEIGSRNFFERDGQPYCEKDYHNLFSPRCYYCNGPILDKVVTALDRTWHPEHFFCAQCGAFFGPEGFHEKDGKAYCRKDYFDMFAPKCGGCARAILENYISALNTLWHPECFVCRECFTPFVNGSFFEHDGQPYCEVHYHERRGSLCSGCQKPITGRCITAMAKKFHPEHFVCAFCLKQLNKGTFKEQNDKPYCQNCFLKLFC
UniProt Q9BXR0: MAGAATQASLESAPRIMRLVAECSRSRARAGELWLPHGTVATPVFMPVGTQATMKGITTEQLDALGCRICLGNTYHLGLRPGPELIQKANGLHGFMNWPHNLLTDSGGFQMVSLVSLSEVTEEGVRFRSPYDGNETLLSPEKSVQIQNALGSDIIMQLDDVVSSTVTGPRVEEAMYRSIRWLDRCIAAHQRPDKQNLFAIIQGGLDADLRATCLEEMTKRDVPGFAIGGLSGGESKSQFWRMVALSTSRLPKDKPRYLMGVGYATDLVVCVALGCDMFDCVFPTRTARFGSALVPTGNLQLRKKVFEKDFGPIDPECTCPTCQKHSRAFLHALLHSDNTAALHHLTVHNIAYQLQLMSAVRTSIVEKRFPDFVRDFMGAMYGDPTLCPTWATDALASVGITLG
UniProt Q96I23: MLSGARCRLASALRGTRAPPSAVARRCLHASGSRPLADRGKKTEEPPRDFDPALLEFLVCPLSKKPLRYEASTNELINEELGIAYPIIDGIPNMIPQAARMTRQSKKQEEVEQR
UniProt Q14088: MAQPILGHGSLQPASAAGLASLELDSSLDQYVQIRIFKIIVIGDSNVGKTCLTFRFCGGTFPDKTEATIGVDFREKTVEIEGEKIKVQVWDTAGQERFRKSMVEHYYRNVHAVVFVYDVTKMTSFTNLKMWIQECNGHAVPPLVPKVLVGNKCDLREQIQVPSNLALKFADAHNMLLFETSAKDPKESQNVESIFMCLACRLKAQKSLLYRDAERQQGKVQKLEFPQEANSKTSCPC
UniProt Q969Q5: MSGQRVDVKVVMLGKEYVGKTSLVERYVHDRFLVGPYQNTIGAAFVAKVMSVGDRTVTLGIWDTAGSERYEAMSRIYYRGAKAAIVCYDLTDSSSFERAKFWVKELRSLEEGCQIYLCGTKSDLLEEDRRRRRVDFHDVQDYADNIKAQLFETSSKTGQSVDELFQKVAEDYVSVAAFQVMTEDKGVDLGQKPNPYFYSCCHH
UniProt Q92696: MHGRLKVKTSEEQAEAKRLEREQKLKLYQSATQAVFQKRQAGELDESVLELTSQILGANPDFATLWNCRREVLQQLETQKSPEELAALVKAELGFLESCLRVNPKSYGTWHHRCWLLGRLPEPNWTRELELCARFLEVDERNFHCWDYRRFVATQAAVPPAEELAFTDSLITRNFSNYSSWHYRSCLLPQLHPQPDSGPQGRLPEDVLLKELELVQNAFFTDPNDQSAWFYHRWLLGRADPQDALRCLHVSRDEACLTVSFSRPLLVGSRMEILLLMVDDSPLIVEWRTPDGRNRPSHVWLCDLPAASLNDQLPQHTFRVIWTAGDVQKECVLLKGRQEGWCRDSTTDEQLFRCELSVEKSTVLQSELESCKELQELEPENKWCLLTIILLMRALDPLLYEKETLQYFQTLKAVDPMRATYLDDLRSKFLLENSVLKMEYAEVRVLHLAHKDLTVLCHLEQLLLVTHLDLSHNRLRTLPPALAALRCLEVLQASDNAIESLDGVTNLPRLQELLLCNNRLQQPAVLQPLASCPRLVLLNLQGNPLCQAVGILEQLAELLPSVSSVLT
UniProt Q9H2M9: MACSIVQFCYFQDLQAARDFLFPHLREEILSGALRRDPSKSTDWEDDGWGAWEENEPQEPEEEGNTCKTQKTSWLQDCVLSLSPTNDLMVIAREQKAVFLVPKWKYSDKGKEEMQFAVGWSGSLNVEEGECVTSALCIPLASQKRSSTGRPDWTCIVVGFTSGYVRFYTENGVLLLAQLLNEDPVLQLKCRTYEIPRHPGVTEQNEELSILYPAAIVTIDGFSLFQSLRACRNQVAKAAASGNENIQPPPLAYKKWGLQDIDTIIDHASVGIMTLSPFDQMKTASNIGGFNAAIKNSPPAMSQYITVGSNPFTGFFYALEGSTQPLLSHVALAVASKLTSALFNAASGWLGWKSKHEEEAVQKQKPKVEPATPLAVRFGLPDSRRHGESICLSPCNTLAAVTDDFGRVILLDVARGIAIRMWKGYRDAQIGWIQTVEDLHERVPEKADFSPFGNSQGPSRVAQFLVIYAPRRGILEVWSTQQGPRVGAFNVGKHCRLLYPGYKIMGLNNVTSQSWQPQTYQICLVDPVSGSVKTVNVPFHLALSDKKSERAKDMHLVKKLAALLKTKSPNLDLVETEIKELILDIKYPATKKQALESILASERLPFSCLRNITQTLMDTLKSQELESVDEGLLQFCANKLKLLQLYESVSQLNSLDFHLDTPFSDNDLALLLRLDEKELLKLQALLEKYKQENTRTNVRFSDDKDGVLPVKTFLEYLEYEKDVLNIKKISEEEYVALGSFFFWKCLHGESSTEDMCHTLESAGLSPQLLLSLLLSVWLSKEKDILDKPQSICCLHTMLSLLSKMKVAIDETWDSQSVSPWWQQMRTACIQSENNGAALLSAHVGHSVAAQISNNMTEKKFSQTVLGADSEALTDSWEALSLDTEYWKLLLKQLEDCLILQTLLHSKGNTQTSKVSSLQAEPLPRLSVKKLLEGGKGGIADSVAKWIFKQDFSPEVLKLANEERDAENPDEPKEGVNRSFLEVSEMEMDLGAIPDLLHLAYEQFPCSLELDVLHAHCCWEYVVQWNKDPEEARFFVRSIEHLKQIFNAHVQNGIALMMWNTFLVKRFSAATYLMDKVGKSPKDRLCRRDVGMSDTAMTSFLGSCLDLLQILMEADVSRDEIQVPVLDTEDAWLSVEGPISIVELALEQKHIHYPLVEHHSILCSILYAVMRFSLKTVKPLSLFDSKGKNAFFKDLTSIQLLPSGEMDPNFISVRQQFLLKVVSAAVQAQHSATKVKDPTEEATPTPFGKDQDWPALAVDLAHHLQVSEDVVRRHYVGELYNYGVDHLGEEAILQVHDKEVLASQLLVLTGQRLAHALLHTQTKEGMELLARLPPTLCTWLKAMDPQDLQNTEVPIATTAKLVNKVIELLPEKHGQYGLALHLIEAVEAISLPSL

Target	probe-labelled cysteine peptide fold change (10 µM)	probe-labelled cysteine peptide fold change (50 µM)
R3HDM4_Q96D70_29_LLPLPSCLPALASSQVK (UniProt Q96D70)	0.0386	-0.181
RAD23A_P54725_344_ALGFPESLVIQAYFACEK (UniProt P54725)	-0.0237	-0.063
PWP2_Q15269_60_CVGLSPDGR (UniProt Q15269)	0.0189	0.0846
QTRT2_Q9H974_263_LISGVSRPDEVLECIER (UniProt Q9H974)	-0.111	0.0558
R3HCC1_Q9Y3T6_362_IQWVDDTHALGIFPCLASAAEALTR (UniProt Q9Y3T6+R3HCC1)	-0.309	-0.204
RAD50_Q92878_325_LVDCHR (UniProt Q92878)	0.0273	0.131
QKI_Q96PU8_35_LMSSLPNFCGIFNHLER (UniProt Q96PU8)	-0.055	0.0375
RAD54B_Q9Y620_320_CGAILADEMGLGK (UniProt Q9Y620)	0.0288	0.149
RAB9B_Q9NP90_182_QVLAVEEQLEHCMLGHTIDLNSGSK (UniProt Q9NP90)	-0.018	-0.054
RAB18_Q9NP72_160_TCDGVQCAFEELVEK (UniProt Q9NP72)	0.0849	0.0421
QRSL1_Q9H0R6_483_AFCDQQLLTVAK (UniProt Q9H0R6)	0.0551	0.131
PXN_P49023_290_CWAAGWPR (UniProt P49023)	0.0794	-0.093
QRSL1_Q9H0R6_203_NPAAHCGLVGFKPSYGLVSR (UniProt Q9H0R6)	-0.00717	-0.0802
RABGAP1_Q9Y3P9_969_QKVDDCER (UniProt Q9Y3P9)	-0.0183	0.0662
RACK1_P63244_249_HLYTLDGGDIINALCFSPNRYWLCAATGPSIK (UniProt P63244)	-0.43	-0.454
QTRT1_Q9BXR0_70_ICLGNTYHLGLRPGPELIQK (UniProt Q9BXR0)	-0.0515	0.0556
PYURF_Q96I23_60_KTEEPPRDFDPALLEFLVCPLSK (UniProt Q96I23)	-0.332	-0.352
RAB33A_Q14088_135_MWIQECNGHAVPPLVPK (UniProt Q14088)	-0.0486	0.0099

Target	probe-labelled cysteine peptide fold change (10 µM)	probe-labelled cysteine peptide fold change (50 µM)
RAB24_Q969Q5_87_AAIVCYDLTDSSSFER (UniProt Q969Q5)	0.165	0.158
PWP1_Q13610_439_MGVLFCSSCCPDLPFIYAFGGQK (UniProt Q13610)	-0.123	-0.00617
QTRT1_Q9BXR0_23_LVAECSR (UniProt Q9BXR0)	-0.103	-0.0782
RABGGTA_Q92696_132_ELELCAR (UniProt Q92696)	0.147	0.122
RAB3GAP2_Q9H2M9_793_DILDKPQSICCLHTMLSLLSK (UniProt Q9H2M9)	0.202	0.0417
RABGGTA_Q92696_99_AELGFLESCLR (UniProt Q92696)	0.0177	0.117
RACK1_P63244_138_LWNTLGVCK (UniProt P63244)	0.00679	0.0323
RABGGTA_Q92696_186_SCLLPQLHPQPDSGPQGR (UniProt Q92696)	0.0398	-0.112
QSOX1_O00391_512_ELCSACHNER (UniProt O00391)	0.121	-0.0923
RAB7A_P51149_84_GADCCVLVFDVTAPNTFK (UniProt P51149)	0.113	0.283
PYCR3_Q53H96_235_SDVCTPGGTTIYGLHALEQGGLR (UniProt Q53H96)	0.0407	-0.163
PWP2_Q15269_647_RFEISCNLSLDAMEEFLNR (UniProt Q15269)	0.2	0.263
RACK1_P63244_168_FSPNSSNPIIVSCGWDK (UniProt P63244)	0.0732	-0.0677
RAD50_Q92878_157_AVLNNVIFCHQEDSNWPLSEGK (UniProt Q92878)	-0.0153	0.196
PWWP2A_Q96N64_233_CEANGAVPDDPSPVPHPELSLAESLWTSKPPPLFHEGAPYPPPLFIR (UniProt Q96N64)	-0.28	-0.21
RAB3GAP1_Q15042_783_HLLPCVIHAAVLK (UniProt Q15042)	-0.107	-0.00935
RAB21_Q9UL25_177_GIEELFLDLCK (UniProt Q9UL25)	0.0968	0.0672
RABGGTA_Q92696_487_CLEVLQASDNAIESLDGVTNLPR (UniProt Q92696)	-0.113	0.00806

Reference: the supplement of paper PMC12067093, “Discovery and optimisation of a covalent ligand for TRIM25 and its application to targeted protein ubiquitination” (Chemical Science, 2025)
